Test results: US20220323406A1, “METHODS AND COMPOSITIONS FOR DIFFERENTIATING STEM CELLS” (Massachusetts Institute of Technology, priority 2019, published 2022)
Where “and” joins values, the source holds several entries; their conditions need not be identical. Equal entries are not always repeated. For some assays here: At least one read-out could not be matched to a standard name with certainty. For some assays here: At least one structure is not confirmed: it was looked up by name or label, or the drawing left a doubt.

Assays:
[1] = system: ENR+CD organoids (ISC to Paneth cell differentiation); test: Primary screen: basal (non-stimulated) lysozyme secretion LYZ.NS, 2.5-D 384-well ENR+CD organoid differentiation; assay type: cell-based, mouse; settings: Table 5A primary screen, dose not given
From the text: (§1) High-throughput screening.

ENR+CD organoids = test: Primary screen: ATP (CellTiter-Glo 3D, CTG) cell number/viability, 2.5-D 384-well ENR+CD organoids; settings: for Z.CTG: primary screen, standard z score;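 for all read-outs here: compounds given at plating and again on day 3 over a 6-day differentiation from ENR+CV stem-cell-enriched precursors, ATP measured on day 6, plate median as control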
[2] = system: ENR+CD organoids (ISC to Paneth cell differentiation); test: Primary screen: CCh-stimulated lysozyme secretion LYZ.S, 2.5-D 384-well ENR+CD organoid differentiation; assay type: cell-based, mouse; settings: Table 5A primary screen; standard z score of FC; four lines per treatment = four doses, dose not given
From the text: as §1

[3] = system: 3D-cultured intestinal organoids (ENR or ENR+CD); test: Lysozyme secretion assay (3D culture), normalized to ATP; assay type: cell-based, mouse; settings: 6-day ENR+CD differentiation
Description: Lysozyme assay (3D culture). ISC-enriched organoids cultured in 3D Matrigel with ENRCV media were passaged to 48-well plate in 3D Matrigel with ENRCV. At day zero, media were replaced to ENR or ENRCD with or without indicated compounds, and media were replaced every other day. At day six, cells were washed twice with basal media and treated with carbamylcholine chloride (Sigma, C4382) for 3 hours. Media were collected and lysozyme activity was measured by EnzChek Lysozyme Assay Kit (ThermoFisher, E22013).
Lysozyme secretion assay. ISC-enriched organoids in 3D Matrigel culture were passaged to a 48- or 96-well plate and cultured with ENR or ENR+CD media containing DMSO or each drug for 6 days. DMSO- or drug-containing media were changed every other day. On day 6, cells were washed with basal media twice and treated with basal media with or without 10 μM carbamoylcholine chloride for 3 h in a CO2 incubator at 37° C. […] The fluorescence was measured using excitation/emission of 485/530 nm. […] The solution was replaced to a 96-well white microplate, and luminescent signals were measured by a microplate reader (infinite M200, Tecan). […] For both assays, a polynomial cubic curve was fitted to a set of standard data, and each sample value was calculated on the Microsoft Excel.

| SMILES | SSMD.LYZ.NS ([1]; strictly standardized mean difference, four lines per treatment = four doses) | Z.CTG (ENR+CD organoids; dose 0.08 uM) | Z.CTG (ENR+CD organoids; dose 0.40 uM) | Z.CTG (ENR+CD organoids; dose 2.00 uM) | Z.CTG (ENR+CD organoids; dose 10.00 uM) | Z.LYZ.S [2] | Paneth cell differentiation (functional LYZ secretion), compound alone [3] | Paneth cell differentiation (functional LYZ secretion), in combination with KPT-330 ([3]; with KPT-330 (160 nM)) | SSMD.LYZ.NS (strictly standardized mean difference, basal lysozyme secretion) ([1]; continuation part, four rows per treatment = four doses, column head inferred) | SSMD.CTG (strictly standardized mean difference, ATP/CTG) (ENR+CD organoids; Table 5A primary screen, continuation part, four rows per treatment = four doses, dose not given, column head inferred) |
| --- | --- | --- | --- | --- | --- | --- | --- | --- | --- | --- |
| COc1cc2c(cc1OC)CN(CCc1ccc(NC(=O)c3cc(OC)c(OC)cc3NC(=O)c3cnc4ccccc4c3)cc1)CC2 [Tariquidar] | 0.307 and 0.286 and 0.275 and 0.272 | −0.280 | 0.128 | 0.899 | 0.543 | 0.260 and 0.474 and 0.380 |  |  |  |  |
| CC(=O)c1c(C)c2cnc(Nc3ccc(N4CCNCC4)cn3)nc2n(C2CCCC2)c1=O [palbociclib] |  |  |  |  |  |  | did not alter Paneth cell differentiation | did not alter Paneth cell differentiation |  |  |
| OC(CNCC(O)C1CCc2cc(F)ccc2O1)C1CCc2cc(F)ccc2O1 (centres unmarked) [Nebivolol] |  | 0.926 | 0.526 | 0.746 | 0.499 |  |  |  | 1.220 and 0.870 and 0.692 and 0.855 | 1.057 and 0.670 and 1.162 and 0.663 |
